Reference: US20250346938A1 (Wisconsin Alumni Research Foundation, priority 2024, published 2025)

Assay: general procedure: peptide synthesis; 4-alkoxybenzyl alcohol resins; Rink amide resin; 1-hydroxybenzotriazole
Conditions: late stage modification step, on LRLRGG-hydrazide

## LRLRGG-Mes (SEQ ID NO: 66)
  step yield: 45%
